Reference: US20030232340A1 (priority 2002, published 2003)
For at least one compound, name, drawing or mass did not settle the structure.

Amino acid sequences for entries named in this document (tags omitted). Residues count along the entry.
UniProt P02710, 25-461: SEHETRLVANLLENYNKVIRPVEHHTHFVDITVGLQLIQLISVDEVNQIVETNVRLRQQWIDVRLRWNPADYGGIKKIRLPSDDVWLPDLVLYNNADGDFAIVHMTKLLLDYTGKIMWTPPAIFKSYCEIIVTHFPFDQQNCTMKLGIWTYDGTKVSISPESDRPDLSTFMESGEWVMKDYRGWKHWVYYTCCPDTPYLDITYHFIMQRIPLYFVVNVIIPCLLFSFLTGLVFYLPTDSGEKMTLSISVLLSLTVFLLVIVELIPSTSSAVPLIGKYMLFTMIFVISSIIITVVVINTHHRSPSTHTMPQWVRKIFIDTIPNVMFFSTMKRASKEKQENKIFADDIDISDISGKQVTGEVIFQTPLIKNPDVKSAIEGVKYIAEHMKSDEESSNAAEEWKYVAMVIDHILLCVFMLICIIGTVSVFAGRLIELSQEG
UniProt P02714, 18-506: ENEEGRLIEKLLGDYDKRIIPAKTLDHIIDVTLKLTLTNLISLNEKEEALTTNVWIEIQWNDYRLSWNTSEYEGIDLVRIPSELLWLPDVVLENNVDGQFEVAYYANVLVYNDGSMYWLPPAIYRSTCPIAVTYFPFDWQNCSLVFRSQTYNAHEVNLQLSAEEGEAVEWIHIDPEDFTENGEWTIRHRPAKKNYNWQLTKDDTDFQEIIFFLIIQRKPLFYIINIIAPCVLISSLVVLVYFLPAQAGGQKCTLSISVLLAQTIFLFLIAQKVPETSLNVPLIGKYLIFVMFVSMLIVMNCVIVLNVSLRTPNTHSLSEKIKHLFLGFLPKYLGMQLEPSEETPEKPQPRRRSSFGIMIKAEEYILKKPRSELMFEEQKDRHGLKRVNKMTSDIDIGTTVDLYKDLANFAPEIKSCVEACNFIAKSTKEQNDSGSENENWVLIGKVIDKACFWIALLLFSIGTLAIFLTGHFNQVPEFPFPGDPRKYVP
UniProt P02718, 22-522: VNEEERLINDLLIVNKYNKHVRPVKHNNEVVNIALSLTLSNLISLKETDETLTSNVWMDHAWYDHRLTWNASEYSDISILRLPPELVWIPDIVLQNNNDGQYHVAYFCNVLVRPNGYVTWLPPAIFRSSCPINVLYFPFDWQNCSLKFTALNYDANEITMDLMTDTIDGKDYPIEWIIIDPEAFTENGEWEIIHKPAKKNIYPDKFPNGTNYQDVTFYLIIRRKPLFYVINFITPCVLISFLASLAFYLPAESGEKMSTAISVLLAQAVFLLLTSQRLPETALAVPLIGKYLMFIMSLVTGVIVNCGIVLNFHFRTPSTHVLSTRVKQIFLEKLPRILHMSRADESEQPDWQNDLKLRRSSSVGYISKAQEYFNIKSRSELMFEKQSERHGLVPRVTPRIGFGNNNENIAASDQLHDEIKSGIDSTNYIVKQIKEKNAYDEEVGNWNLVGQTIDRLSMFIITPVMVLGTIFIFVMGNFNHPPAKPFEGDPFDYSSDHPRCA

Target: AChR (Tetronarce californica, UniProt P02710+P02714+P02718)
Experiment: Liquid-phase competitive displacement assay with nitrophenylphosphate-labelled bungarotoxin and alkaline phosphatase
Format: binding
Conditions: pH 8.5, alkaline phosphatase in the exterior phase

With `CC(=O)OCC[N+](C)(C)C` [acetylcholine] the “absorbance at 285 nm as analyte is added to the dispersion” value was “increase”.
